Experimental data published in the M2OR odorant receptor database.
Where a chain is given by its changes, count along the chain named. The list shows a part of the results, in another mix than the full data. The calls were merged from several studies; some rest on single wells. The list shows a part of the results.

Chains of the proteins cited; added tags and fusions are not shown. Where a name states a change or a piece, a line headed by the entry shows the natural chain unless it says otherwise. A line that says so, or that is headed by a name, gives the form on record, which may keep a tag or linker.
UniProt Q96R45: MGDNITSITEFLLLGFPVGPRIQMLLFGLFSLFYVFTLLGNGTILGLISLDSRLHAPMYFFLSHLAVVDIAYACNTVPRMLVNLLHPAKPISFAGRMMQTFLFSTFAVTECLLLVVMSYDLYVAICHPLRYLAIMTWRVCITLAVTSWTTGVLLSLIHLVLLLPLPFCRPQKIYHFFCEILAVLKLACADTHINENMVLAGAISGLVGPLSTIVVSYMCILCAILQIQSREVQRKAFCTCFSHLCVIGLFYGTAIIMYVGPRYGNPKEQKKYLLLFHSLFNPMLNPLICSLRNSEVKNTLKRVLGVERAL
OR2A7, as listed by the source: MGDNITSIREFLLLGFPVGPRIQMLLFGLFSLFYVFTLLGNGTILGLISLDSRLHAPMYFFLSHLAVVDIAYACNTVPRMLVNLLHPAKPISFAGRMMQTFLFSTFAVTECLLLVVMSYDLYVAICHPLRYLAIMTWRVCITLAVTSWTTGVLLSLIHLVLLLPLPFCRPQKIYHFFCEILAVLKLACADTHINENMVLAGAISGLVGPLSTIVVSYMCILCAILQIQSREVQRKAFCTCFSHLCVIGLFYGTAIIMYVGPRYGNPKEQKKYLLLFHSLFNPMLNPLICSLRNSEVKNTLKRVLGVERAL
OR2A2, as listed by the source: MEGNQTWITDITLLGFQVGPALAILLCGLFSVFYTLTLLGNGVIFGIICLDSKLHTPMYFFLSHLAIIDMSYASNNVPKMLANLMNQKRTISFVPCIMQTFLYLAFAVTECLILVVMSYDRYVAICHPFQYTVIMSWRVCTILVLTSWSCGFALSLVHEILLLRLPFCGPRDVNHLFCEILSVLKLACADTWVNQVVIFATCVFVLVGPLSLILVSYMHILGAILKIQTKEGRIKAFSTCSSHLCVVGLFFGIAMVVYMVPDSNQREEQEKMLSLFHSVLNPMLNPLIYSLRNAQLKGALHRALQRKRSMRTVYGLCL

Experiments:
Conditions in all cases: stereoisomer not certain
[1] = molecular target: T1, OR1L8 (Homo sapiens) (UniProt Q8NGR8)
T1 sequence (whole entry): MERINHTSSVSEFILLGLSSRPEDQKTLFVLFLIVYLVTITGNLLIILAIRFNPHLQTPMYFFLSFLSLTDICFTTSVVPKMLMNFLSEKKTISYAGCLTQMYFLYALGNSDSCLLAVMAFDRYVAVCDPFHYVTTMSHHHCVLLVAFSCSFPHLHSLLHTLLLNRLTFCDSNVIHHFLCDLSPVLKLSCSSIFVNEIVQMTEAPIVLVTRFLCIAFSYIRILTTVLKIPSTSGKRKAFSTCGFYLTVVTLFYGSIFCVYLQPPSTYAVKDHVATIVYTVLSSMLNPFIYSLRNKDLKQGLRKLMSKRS
Method in brief: (§1)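 Whether a receptor–molecule pair is responsive (active) rests on the original authors' judgment that its measured signal was statistically different from baseline. Pairs without that judgment are non-responsive (inactive). Sources used varied assay methods, commonly transient luciferase assays in mammalian cell lines.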

[2] = system: T2, OR1M1
T2 sequence (whole entry): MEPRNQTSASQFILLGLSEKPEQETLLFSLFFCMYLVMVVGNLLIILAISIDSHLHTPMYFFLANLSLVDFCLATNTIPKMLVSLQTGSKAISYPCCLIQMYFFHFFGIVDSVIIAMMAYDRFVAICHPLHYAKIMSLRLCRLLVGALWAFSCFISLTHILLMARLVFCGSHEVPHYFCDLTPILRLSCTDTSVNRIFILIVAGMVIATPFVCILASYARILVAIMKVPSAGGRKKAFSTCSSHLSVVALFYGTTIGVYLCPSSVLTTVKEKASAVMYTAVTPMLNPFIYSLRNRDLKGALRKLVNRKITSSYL
Method in brief: as §1

[3] = molecular target: T3, OR1N1 (Homo sapiens) (UniProt Q8NGS0)
T3 sequence (whole entry): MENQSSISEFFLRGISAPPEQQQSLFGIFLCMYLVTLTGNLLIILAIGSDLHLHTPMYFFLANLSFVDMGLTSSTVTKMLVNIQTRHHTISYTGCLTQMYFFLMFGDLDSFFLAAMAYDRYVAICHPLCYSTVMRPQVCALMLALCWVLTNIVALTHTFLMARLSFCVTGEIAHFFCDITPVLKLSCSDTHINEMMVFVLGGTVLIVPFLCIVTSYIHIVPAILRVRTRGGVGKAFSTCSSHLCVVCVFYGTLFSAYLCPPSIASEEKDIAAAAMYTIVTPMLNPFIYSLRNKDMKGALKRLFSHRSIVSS
Method in brief: as §1

[4] = molecular target: T4, OR1N2 (Homo sapiens) (UniProt Q8NGR9)
T4 sequence (whole entry): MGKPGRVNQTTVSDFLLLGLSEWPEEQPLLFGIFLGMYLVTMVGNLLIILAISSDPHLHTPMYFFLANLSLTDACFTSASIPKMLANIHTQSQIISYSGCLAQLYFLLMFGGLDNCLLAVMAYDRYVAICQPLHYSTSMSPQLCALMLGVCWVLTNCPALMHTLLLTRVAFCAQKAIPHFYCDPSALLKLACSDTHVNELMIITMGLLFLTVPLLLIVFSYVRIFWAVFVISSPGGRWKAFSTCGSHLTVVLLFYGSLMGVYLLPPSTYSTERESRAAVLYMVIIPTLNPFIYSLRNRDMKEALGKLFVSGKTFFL
Method in brief: as §1

[5] = system: T5, OR1N2
T5 sequence (whole entry): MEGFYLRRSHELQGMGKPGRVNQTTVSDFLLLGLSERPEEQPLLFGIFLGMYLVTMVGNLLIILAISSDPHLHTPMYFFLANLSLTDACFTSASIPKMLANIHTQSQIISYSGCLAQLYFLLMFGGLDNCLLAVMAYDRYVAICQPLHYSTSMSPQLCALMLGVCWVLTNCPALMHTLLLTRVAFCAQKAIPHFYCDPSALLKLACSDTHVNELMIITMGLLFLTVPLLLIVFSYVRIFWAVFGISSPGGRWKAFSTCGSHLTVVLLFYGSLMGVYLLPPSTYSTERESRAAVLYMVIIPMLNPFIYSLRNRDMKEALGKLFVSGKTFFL
Method in brief: as §1

[6] = system: T6, OR1Q1
T6 sequence (whole entry): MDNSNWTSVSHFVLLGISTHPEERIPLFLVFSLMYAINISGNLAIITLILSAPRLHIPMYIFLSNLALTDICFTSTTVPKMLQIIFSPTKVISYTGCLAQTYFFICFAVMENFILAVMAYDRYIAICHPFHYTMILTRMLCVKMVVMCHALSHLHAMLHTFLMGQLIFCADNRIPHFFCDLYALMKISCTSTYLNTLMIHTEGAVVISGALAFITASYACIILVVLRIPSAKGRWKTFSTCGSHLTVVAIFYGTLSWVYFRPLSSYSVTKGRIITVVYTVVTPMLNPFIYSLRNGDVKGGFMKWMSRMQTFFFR
Method in brief: as §1

[7] = system: T7, OR1S1
T7 sequence (whole entry): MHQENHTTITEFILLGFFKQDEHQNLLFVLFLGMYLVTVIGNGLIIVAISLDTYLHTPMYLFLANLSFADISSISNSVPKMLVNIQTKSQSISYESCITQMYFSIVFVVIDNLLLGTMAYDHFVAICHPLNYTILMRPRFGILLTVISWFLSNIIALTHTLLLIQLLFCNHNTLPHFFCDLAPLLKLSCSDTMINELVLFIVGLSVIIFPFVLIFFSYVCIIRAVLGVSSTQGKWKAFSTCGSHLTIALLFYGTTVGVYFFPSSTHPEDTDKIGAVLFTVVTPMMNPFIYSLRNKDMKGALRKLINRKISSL
Method in brief: as §1

[8] = system: T8, OR1S2
T8 sequence (whole entry): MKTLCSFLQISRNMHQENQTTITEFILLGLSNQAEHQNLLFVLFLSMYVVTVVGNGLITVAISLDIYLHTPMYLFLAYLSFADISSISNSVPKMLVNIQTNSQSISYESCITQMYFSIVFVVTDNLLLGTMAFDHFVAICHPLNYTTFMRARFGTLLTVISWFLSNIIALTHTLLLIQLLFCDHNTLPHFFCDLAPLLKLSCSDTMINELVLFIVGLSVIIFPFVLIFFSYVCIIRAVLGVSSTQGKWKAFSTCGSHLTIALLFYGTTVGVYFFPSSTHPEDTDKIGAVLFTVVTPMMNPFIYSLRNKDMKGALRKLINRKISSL
Method in brief: as §1

[9] = molecular target: T9, OR2A12 (Homo sapiens) (UniProt Q8NGT7)
T9 sequence (whole entry): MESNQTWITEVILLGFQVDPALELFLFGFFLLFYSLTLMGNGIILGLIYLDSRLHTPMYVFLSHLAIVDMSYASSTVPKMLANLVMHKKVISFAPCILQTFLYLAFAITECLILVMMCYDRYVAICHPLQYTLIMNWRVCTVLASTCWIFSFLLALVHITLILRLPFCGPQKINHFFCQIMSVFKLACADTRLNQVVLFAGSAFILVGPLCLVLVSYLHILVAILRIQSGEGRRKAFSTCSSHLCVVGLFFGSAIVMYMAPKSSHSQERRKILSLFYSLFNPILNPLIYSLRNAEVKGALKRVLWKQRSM
Method in brief: as §1

[10] = molecular target: T10, OR2A14 (Homo sapiens) (UniProt Q96R47)
T10 sequence (whole entry): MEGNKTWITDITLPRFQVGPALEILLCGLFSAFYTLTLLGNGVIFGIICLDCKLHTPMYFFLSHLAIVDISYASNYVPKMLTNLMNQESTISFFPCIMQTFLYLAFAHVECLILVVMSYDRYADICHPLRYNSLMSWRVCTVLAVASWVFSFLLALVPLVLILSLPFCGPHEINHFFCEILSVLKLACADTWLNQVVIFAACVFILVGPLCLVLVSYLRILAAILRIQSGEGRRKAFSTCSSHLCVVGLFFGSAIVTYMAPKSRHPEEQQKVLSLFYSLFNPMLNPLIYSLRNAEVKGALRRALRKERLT
Method in brief: as §1

[11] = system: T11, OR2A1
T11 sequence (whole entry): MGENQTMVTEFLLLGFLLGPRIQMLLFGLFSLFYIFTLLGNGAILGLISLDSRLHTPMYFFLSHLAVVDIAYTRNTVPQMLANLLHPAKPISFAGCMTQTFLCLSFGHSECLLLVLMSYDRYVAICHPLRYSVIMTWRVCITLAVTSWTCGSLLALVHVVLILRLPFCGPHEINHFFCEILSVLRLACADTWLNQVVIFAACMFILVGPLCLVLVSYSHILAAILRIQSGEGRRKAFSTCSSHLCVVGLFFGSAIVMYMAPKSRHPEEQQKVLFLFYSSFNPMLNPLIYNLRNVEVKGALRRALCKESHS
Method in brief: as §1

[12] = system: T12, OR2A1; remark: listed apart in the source
T12 sequence (whole entry): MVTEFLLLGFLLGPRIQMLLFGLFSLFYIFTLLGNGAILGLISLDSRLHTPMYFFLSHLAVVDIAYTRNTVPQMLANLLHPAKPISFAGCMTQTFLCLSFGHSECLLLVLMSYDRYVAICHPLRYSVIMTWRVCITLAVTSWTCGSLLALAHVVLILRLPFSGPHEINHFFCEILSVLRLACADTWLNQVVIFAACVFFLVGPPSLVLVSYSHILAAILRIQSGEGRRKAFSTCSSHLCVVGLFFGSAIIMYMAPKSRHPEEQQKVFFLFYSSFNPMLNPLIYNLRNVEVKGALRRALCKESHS
Method in brief: as §1

[13] = molecular target: T13, OR2A2 (Homo sapiens) (UniProt Q6IF42)
T13 sequence (whole entry): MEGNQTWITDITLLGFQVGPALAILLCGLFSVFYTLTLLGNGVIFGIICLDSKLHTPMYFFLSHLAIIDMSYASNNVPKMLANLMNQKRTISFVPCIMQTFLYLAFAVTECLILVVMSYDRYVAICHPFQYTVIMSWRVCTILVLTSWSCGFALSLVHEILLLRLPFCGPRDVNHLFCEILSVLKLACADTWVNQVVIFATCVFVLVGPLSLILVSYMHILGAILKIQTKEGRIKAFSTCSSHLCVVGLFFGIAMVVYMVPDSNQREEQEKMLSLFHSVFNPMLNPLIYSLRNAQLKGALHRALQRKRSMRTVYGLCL
Method in brief: as §1

[14] = molecular target: T14, OR2A25 (Homo sapiens) (UniProt A4D2G3)
T14 sequence (whole entry): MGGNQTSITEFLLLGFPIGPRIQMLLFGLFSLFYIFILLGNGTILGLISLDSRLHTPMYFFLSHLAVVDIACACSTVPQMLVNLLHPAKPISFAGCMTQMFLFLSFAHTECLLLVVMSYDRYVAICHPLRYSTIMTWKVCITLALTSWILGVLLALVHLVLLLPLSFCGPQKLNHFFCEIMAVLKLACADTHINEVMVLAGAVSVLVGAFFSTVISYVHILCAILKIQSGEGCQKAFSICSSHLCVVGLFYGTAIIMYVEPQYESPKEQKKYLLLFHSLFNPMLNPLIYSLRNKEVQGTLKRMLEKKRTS
Method in brief: as §1

[15] = system: T15, OR2A2
T15 sequence (whole entry): T13 sequence (whole entry) with F280L
Method in brief: as §1

[16] = molecular target: T16, OR2A4 (Homo sapiens) (UniProt O95047)
T16 sequence (whole entry): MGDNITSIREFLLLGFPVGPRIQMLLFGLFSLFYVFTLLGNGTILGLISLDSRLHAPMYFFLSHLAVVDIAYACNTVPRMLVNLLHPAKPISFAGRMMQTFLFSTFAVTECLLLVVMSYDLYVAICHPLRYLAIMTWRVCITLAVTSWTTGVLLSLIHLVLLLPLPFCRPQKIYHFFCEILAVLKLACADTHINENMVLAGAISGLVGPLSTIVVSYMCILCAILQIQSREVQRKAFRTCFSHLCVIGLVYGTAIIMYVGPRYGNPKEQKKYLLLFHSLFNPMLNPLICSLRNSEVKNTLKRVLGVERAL
Method in brief: as §1

[17] = molecular target: T17, OR2A5 (Homo sapiens) (UniProt Q96R48)
T17 sequence (whole entry): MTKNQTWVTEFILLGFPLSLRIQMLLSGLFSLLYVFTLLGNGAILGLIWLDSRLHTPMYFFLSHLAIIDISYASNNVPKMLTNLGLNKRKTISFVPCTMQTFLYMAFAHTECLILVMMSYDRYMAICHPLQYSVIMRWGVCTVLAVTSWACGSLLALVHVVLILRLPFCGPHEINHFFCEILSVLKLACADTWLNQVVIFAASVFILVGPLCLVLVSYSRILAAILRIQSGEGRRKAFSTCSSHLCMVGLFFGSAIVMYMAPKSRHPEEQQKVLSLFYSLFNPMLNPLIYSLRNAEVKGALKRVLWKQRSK
Method in brief: as §1

[18] = molecular target: T18, OR2A7 (Homo sapiens) (UniProt Q96R45)
T18 sequence (whole entry): T16 sequence (whole entry) with R9T, R238C, V250F
Method in brief: as §1

[19] = system: T19, OR2A7
T19 sequence (whole entry): T16 sequence (whole entry) with R238C, V250F
Method in brief: as §1

[20] = molecular target: T20, OR2AG1 (Homo sapiens) (UniProt Q9H205)
T20 sequence (whole entry): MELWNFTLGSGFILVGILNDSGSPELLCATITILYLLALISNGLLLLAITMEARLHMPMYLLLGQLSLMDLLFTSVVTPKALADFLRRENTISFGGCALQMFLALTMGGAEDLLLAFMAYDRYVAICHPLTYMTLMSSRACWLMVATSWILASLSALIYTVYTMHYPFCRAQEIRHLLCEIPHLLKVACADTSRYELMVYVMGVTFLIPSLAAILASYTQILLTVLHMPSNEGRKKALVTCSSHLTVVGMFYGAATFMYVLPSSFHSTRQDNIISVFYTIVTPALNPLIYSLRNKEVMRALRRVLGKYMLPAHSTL
Method in brief: as §1

Measured: odorant receptor agonist call

CCCCOC(C)=O
active: [7]
inactive: all other assays above
